Measured values taken from article PMC3524939.

Chains of the proteins cited; added tags and fusions are not shown.
UniProt Q9CQJ4: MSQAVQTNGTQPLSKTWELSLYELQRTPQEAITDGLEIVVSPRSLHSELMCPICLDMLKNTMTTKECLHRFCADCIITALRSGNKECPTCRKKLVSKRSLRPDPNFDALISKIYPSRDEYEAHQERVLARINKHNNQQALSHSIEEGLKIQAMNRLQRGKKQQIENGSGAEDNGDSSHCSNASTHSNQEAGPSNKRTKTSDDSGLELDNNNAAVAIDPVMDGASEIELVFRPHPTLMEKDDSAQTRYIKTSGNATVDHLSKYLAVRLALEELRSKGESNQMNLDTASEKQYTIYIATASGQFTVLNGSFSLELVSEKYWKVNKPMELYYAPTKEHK
UniProt O35730: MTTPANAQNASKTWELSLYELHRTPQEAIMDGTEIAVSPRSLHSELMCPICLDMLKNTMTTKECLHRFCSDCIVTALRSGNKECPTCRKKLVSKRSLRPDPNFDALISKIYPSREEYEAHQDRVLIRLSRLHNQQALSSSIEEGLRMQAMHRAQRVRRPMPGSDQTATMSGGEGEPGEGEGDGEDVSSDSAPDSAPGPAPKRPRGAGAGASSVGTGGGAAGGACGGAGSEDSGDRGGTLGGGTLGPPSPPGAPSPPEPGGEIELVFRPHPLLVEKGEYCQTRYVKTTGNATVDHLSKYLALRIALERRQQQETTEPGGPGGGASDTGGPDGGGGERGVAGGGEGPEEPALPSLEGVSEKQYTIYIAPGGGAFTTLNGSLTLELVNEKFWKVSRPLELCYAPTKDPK
UniProt A2AQH4: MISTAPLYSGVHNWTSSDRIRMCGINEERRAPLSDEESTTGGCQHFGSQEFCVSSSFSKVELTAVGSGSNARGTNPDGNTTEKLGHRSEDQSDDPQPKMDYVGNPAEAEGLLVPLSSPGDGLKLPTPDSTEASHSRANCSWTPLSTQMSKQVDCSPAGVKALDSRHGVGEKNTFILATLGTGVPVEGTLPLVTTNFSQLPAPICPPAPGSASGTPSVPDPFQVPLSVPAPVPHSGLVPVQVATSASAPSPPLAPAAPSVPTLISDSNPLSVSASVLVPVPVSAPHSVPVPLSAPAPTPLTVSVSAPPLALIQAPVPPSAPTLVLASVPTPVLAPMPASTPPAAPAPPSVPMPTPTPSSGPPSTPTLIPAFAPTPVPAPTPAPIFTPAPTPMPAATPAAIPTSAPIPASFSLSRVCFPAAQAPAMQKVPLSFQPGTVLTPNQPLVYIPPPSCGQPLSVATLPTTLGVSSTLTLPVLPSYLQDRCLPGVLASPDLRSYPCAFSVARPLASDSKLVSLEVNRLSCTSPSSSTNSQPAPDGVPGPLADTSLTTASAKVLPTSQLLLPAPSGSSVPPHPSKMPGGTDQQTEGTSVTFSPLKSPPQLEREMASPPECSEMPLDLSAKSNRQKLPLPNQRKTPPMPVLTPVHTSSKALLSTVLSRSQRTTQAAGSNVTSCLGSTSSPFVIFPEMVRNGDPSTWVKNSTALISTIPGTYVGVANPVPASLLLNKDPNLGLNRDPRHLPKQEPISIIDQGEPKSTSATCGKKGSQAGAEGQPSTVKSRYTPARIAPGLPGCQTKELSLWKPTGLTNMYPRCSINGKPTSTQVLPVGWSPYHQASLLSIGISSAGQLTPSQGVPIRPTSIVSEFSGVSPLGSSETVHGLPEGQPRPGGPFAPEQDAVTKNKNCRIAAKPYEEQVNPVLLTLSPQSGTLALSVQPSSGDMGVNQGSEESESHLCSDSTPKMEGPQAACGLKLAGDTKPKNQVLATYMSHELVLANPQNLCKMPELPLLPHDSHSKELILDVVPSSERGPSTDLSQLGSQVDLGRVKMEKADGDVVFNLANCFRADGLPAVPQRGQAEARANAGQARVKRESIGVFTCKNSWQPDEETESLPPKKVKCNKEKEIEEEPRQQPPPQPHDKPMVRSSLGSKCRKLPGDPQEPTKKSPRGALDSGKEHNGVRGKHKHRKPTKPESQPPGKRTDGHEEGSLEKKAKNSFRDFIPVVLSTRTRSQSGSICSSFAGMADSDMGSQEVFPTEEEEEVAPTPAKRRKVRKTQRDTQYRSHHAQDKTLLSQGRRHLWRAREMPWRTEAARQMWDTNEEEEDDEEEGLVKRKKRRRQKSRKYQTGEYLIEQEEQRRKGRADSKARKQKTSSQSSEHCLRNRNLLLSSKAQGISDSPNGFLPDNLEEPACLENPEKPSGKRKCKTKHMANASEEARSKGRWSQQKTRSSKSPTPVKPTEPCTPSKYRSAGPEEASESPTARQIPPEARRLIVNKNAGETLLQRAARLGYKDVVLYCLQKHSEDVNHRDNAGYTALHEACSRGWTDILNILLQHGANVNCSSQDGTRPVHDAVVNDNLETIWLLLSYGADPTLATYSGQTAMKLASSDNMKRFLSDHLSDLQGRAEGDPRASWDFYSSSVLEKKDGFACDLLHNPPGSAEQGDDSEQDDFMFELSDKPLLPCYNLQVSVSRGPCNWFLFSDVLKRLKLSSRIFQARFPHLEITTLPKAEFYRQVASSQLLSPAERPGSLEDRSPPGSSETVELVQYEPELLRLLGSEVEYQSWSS
UniProt Q8CGN4: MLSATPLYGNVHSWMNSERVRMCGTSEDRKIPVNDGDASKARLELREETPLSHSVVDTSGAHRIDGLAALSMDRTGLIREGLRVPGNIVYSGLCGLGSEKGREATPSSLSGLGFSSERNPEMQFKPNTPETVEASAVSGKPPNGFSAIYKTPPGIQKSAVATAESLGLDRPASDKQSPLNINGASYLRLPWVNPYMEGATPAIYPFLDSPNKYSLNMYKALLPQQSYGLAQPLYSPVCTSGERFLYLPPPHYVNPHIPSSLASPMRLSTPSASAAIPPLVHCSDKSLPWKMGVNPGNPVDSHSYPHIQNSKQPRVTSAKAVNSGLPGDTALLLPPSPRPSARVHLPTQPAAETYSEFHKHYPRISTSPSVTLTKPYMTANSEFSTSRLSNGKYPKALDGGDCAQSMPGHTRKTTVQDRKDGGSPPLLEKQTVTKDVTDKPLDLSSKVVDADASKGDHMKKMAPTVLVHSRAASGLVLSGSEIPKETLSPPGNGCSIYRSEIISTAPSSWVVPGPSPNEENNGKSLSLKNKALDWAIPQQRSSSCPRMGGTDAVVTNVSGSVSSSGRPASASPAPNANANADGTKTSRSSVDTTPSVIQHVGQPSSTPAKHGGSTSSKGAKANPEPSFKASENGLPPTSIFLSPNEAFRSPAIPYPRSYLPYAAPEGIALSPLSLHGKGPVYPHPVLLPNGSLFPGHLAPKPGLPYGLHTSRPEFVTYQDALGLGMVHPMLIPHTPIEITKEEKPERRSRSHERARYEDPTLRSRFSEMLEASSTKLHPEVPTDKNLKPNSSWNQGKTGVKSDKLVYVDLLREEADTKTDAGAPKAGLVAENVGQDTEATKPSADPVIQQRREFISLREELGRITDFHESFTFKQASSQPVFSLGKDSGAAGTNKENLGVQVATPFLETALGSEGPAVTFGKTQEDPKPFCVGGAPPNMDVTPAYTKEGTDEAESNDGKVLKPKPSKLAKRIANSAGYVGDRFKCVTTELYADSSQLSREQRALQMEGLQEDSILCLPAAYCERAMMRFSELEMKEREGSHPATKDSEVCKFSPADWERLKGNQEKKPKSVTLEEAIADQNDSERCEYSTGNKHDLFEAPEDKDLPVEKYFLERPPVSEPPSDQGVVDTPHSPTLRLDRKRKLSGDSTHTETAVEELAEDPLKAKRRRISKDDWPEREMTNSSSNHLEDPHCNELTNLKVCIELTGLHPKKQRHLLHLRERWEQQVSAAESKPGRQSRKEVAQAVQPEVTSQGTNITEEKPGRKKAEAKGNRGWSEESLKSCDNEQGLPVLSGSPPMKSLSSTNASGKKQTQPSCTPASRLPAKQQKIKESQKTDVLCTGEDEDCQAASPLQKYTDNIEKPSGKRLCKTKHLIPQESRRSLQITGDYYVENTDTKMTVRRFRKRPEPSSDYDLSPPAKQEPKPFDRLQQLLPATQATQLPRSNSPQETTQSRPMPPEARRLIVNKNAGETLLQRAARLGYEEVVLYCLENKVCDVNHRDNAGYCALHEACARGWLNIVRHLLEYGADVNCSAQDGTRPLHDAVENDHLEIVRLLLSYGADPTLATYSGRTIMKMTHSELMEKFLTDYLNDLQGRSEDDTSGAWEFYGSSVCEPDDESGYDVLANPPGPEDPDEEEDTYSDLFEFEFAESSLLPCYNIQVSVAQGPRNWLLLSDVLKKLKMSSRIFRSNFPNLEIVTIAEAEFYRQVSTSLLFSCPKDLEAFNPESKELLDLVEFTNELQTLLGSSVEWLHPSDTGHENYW

T1: Flag-2XStrepII-tagged KDM2B (human) (UniProt Q8NHM5)
T1 sequence: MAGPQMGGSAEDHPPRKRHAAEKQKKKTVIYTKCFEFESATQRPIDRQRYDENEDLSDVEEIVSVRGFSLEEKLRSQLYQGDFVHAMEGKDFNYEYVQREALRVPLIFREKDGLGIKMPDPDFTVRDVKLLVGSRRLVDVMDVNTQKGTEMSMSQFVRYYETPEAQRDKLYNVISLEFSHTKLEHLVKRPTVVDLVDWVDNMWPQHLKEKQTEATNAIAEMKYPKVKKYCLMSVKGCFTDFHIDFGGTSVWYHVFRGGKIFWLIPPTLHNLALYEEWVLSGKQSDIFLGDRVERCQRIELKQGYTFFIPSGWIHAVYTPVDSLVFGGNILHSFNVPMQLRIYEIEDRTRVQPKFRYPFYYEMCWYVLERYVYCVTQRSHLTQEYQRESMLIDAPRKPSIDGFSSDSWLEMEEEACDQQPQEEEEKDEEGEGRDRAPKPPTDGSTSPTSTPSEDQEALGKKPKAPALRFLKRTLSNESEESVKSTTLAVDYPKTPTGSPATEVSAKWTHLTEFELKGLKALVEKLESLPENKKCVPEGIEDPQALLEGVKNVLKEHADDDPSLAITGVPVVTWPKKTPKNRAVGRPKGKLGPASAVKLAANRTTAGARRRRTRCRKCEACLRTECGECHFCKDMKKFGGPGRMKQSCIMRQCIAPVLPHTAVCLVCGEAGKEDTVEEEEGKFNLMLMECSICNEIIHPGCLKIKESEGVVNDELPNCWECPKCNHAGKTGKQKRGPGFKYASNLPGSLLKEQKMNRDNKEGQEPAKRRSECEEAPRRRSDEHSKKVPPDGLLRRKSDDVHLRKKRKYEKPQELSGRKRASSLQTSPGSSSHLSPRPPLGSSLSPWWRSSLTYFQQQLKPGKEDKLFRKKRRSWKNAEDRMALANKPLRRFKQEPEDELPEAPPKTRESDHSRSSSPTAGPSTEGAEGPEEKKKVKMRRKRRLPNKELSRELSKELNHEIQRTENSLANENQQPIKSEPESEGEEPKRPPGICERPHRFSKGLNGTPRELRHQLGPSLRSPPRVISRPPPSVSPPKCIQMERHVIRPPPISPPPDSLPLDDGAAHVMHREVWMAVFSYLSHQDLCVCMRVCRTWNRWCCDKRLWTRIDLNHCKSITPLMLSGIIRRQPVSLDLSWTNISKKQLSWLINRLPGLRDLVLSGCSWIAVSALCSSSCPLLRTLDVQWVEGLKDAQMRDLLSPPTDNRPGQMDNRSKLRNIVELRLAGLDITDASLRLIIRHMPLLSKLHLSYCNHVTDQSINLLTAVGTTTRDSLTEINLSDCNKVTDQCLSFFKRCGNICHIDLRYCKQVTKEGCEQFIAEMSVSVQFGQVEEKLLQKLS

T2: Flag-2XStrepII tagged RYBP (mouse) (UniProt Q8CCI5)
T2 sequence: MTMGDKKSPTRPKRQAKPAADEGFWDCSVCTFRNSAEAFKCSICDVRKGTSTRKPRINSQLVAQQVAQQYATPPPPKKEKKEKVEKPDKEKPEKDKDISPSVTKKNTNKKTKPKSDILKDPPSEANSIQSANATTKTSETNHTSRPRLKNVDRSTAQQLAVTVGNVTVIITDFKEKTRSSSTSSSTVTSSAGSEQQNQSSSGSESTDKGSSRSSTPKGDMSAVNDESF

T3: Flag-2XStrepII tagged YAF2 (mouse) (UniProt Q99LW6)
T3 sequence: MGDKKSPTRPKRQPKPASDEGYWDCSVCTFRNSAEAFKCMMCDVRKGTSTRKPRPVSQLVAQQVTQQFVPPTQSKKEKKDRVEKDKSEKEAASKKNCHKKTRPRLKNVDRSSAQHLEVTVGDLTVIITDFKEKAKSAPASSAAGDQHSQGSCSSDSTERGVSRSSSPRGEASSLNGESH

B1: endogenous KDM2B (protein, UniProt Q6P1G2 1-1309)
chain: MEAEKDSGRRLRAIDRQRYDENEDLSDVEEIVSVRGFSLEEKLRSQLYQGDFVHAMEGKDFNYEYVQREALRVPLVFRDKDGLGIKMPDPDFTVRDVKLLVGSRRLVDVMDVNTQKGTEMSMSQFVRYYETPEAQRDKLYNVISLEFSHTKLEHLVKRPTVVDLVDWVDNMWPQHLKEKQTEATNALAEMKYPKVKKYCLMSVKGCFTDFHIDFGGTSVWYHVFRGGKIFWLIPPTLHNLALYEEWVLSGKQSDIFLGDRVERCQRIELKQGYTFFIPSGWIHAVYTPVDSLVFGGNILHSFNVPMQLRIYEIEDRTRVQPKFRYPFYYEMCWYVLERYVYCVTQRSYLTQEYQRELMLIDAPRKTSVDGFSSDSWLDMEEESCEQQPQEEEEEEEDKEEEGDGADKTPKPPTDDPTSPTSTPPEDQDSTGKKPKAPAIRFLKRTLSNESEESVKSTSMPTDDPKTPTGSPATEVSTKWTHLTEFELKGLKALVEKLESLPENKKCVPEGIEDPQALLEGVKNVLKEHVDDDPTLAITGVPVVSWPKKTAKNRVVGRPKGKLGPASAVKLAANRTTAGARRRRTRCRKCEACLRTECGECHFCKDMKKFGGPGRMKQSCIMRQCIAPVLPHTAVCLVCGEAGKEDTVEEEEGKFNLMLMECSICNEIIHPGCLKIKESEGVVNDELPNCWECPKCNHAGKTGKQKRGPGFKYASNLPGSLLKEQKMNRDNKEGQEPAKRRSECEEAPRRRSDEHPKKVPADGILRRKSDDVHLRRKRKYEKPQELSGRKRASSLQTSPGSSSHLSPRPPLGSSLSPWWRSSLTYFQQQLKPGKEDKLFRKKRRSWKNAEDRLSLANKPLRRFKQEPEDDLPEAPPKTRESDQSRSSSPTAGPSTEGAEGPEEKKKVKMRRKRRLVNKELSKELSKELNHEIQKTESTLAHESQQPIKSEPESENDEPKRPLSHCERPHRFSKGLNGTPRELRHSLGPGLRSPPRVMSRPPPSASPPKCIQMERHVIRPPPISPPPDSLPLDDGAAHVMHREVWMAVFSYLSHRDLCVCMRVCRTWNRWCCDKRLWTRIDLNRCKSITPLMLSGIIRRQPVSLDLSWTNISKKQLSWLINRLPGLRDLVLSGCSWIAVSALCSSSCPLLRTLDVQWVEGLKDAQMRDLLSPPTDNRPGQMDNRSKLRNIVELRLAGLDITDVSLRLIIRHMPLLSKLQLSYCNHINDQSINLLTAVGTTTRDSLTEVNLSDCNKVTDLCLSFFKRCGNICHIDLRYCKQVTKEGCEQFIAEMSVSVQFGQVEEKLLQKLS
B2: RYBP (protein, UniProt Q8CCI5 1-228)
chain: T2 sequence
B3: YAF2 (protein, UniProt Q99LW6 1-179)
chain: T3 sequence
B4: PCGF1 (protein, UniProt Q8R023 1-259)
chain: MASPQGGQIAIAMRLRNQLQSVYKMDPLRNEEEVRVKIKDLNEHIVCCLCAGYFVDATTITECLHTFCKSCIVKYLQTSKYCPMCNIKIHETQPLLNLKLDRVMQDIVYKLVPGLQDSEEKRIREFYQSRGLDRVSQPSGEEPALSNLGLPFSSFDHSKAHYYRYDEQLSLCLERLSSGKDKNKNVLQNKYVRCSVRAEVRHLRRVLCHRLMLNPQHVQLLFDNEVLPDHMTMKQLWLSRWFGKPSPLLLQYSVKEKRR

Key:
[1] = biological target: Flag-2XStrepII tagged PCGF1 (human) (UniProt Q9BSM1); test: affinity purification with mass spectrometry; reciprocal purifications: Flag-2XStrepII tagged RING1B, YAF2, RYBP or PCGF1 captured on StrepTactin resin from mouse ESC nuclear extract, same setup as for KDM2B; LC-MS/MS
[2] = biological target: T1, Flag-2XStrepII-tagged KDM2B (human); test: affinity purification with mass spectrometry; Flag-2XStrepII-KDM2B captured on StrepTactin resin from mouse ESC nuclear extract (150 mM NaCl, 3 hr, 4°C), with and without benzonase; washes with 500 mM NaCl, 0.2% NP-40; eluted with desthiobiotin; LC-MS/MS; empty-vector line as control
[3] = biological target: T2, Flag-2XStrepII tagged RYBP (mouse); test: affinity purification with mass spectrometry; reciprocal purifications: Flag-2XStrepII tagged RING1B, YAF2, RYBP or PCGF1 captured on StrepTactin resin from mouse ESC nuclear extract, same setup as for KDM2B; LC-MS/MS
[4] = biological target: Flag-2XStrepII tagged RING1B (mouse) (UniProt Q9CQJ4); test: as above
[5] = biological target: T3, Flag-2XStrepII tagged YAF2 (mouse); test: as above

| Molecule | binding [1] | binding [2] | binding [3] | binding [4] | binding [5] |
| --- | --- | --- | --- | --- | --- |
| RING1A (from UniProt O35730 1-406) | binds |  |  |  |  |
| BCORL1 (from UniProt A2AQH4 1-1781) | binds | binds |  |  |  |
| BCOR (from UniProt Q8CGN4 1-1759) | binds | binds |  |  |  |
| RING1B (from UniProt Q9CQJ4 1-336) |  | binds |  |  |  |
| B1 | binds |  | binds | binds | binds |
| B2 | binds | binds |  |  |  |
| B3 | binds | binds |  |  |  |
| B4 |  | binds |  |  |  |

Results are given in words; binding and its absence hold for the method and conditions named. In cells and extracts the contact can be indirect. Here binding means that the protein was enriched with, or labelled near, the bait; the list need not be complete. For part of these data: Sequences can lack the tags named with a protein.
